The text below walks through data of PubChem BioAssay AID2685 (National Center for Advancing Translational Sciences (NCATS), 2010).

A short description of the assay: qHTS Assay for Lipid Storage Modulators in Drosophila S3 Cells.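 On cell number change: cells counted by Cell Tracker Red CMTPX staining in the red channel.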 Conditions: BODIPY lipid droplet fluorescence, 18-24 h; for cell number change: measured here: cell count max response, cells fed with added oleic acid. Summed up:
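Laser-scanning cytometry quantifies lipid droplet accumulation (500–530 nm total intensity; droplet/cell object ratio) in oleic acid-fed (400 uM added) Drosophila S3 cells treated with a concentration series. 20 uM Triacsin C defined 100% inhibition.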

The mark [1] stands for this setting: measured here: cell number channel AC50, cells fed with added oleic acid.
Where [2] appears, read: measured here: lipid fluorescence (Fed channel) AC50, cells fed with added oleic acid.

Structures are written as SMILES. The list shows a part of the results. Shown are side measurements of this screen, not its main read-out; they come without a call. Most of these compounds were active or inconclusive in the main read-out, so they are no random draw. Words in brackets tell the shape of the fitted curve; partial curves, single points and poor fits give uncertain potencies.

Consider `[N-]=[N+]=CC(=O)CC(c1ccccc1)N1C(=O)c2ccccc2C1=O` (stereo not drawn), for which the cell number change is -179%. For the same compound, under setting [1], the concentration at half-maximal activity (AC50) is 0.366 µM [falling, full curve]. Besides, the AC50 under setting [2] is 29.1 µM [falling, single point].
As to `CCNC(=O)C1CC(=O)N(Cc2ccc3c(c2)OCO3)C(=Nc2ccc(F)cc2)S1` (stereo not drawn), the AC50 under setting [1] was 0.82 µM [rising, single point].
On to `COc1cccc(NC(=O)N2CCCC2C(=O)NC23CC4CC(CC(C4)C2)C3)c1` (stereo not drawn), for which the cell number change stood at 7.69%. The half-maximal activity concentration (AC50) under setting [1] is 1.64 µM [rising, partial curve, poor fit].
Take `CCOC(=O)C1CCN(C(C(=O)NC2CCCC2)c2ccc(C)cc2)CC1` (stereo not drawn): the cell number change is -43%. Under setting [1], the concentration at half-maximal activity (AC50) is 16.4 µM [falling, partial curve, poor fit].
For `Cc1cc(C)c(S(=O)(=O)NCCSCc2ccco2)c(C)c1`, the cell number change was -2.75%. Moreover, under setting [2], the AC50 is 0.164 µM [rising, full curve, poor fit].
In the case of `Cc1cccc(NC(=O)C2CCN(c3nc(C)cc(C)n3)CC2)c1`, the half-maximal activity concentration (AC50) under setting [1] was 1.46 µM [rising, partial curve].
As to `Cc1[nH][nH]c(=O)c1C(c1c(C)[nH][nH]c1=O)c1cn(Cc2ccc(Cl)c(Cl)c2)c2ccccc12`, the cell number change was -3.81%. Further, the AC50 under setting [2] was 16.4 µM [falling, single point].
On to `Cc1ccc(CCNC(=O)CCNS(=O)(=O)c2ccc3c(c2)c(=O)n(C)c(=O)n3C)cc1`, for which the cell number change is -13.2%. The AC50 under setting [1] is 0.13 µM [rising, partial curve, poor fit].
Consider `COc1cc(F)c(S(=O)(=O)N2CCOc3ccccc32)cc1OC`, for which the cell number change came to 9.6%. In addition, the AC50 under setting [2] is 5.17 µM [rising, single point].
With `COc1ccc(-c2noc(CNS(=O)(=O)c3ccc(NC(C)=O)cc3)n2)cc1OC`, the cell number change was -5.38%.
For the compound `C=CCC1(C#N)C(=S)NC2=C(C(=O)CC(C)(C)C2)C1c1ccc(Br)cc1` (stereo not drawn), the cell number change worked out at 58.1%. For the same compound, under setting [1], the AC50 is 20.6 µM [rising, partial curve, poor fit].
As to `CC(C)[C@H](NC(=O)[C@@H]1CSC2c3ccccc3C(=O)N21)C(=O)NCc1ccco1` (stereo partly drawn), the cell number change was determined as 11.8%. Further, under setting [2], the AC50 was 29.1 µM [rising, partial curve, poor fit].
On to `FC(F)(F)c1ccccc1NC(=S)Nc1cccc(Cl)c1`, for which the cell number change was -46.7%.
Consider `CCOC(=O)CSc1nnc(COc2ccc3ccccc3c2)o1`, for which the cell number change turned out to be 6.32%.
In the case of `Cc1cc(Br)ccc1SCC(=O)OCC(=O)NC1CCCC1`, the cell number change was -14.4%.
As for `CCc1ccc(OCC(=O)Nc2ccc3oc(=O)ccc3c2)cc1`, the cell number change is -28.9%.
As to `CCCCN(C(=O)c1ccc(C)o1)c1c(N)n(CCCC)c(=O)[nH]c1=O`, the cell number change was -5.6%.
Same read-out and setting: the value for `CCCCCCCN1C(Nc2ccccc2)=NC[C@@H]1CC(C)C` was -4.79%.
`CCOc1cc(N2CCOCC2)c(OCC)cc1NC(=O)c1ccccc1`: the cell number change is 46.1%. The concentration at half-maximal activity (AC50) under setting [1] is 0.731 µM [falling, single point]. Moreover, the half-maximal activity concentration (AC50) under setting [2] was 20.6 µM [rising, partial curve].
With `COc1cccc(CN2CCN(CC(=O)NCCc3ccccc3)CC2)c1`, the cell number change was -1.1%.
As to `COc1cc(/C=C2\NC(=S)N(C)C2=O)ccc1OCc1ccccc1F`, the cell number change is 3.6%.
`CCOC(=O)/C(=N\Nc1ccc(Br)cc1)N1CCN(c2ccccc2OC)CC1`: the cell number change is 36.2%. Besides, the AC50 under setting [1] was 32.6 µM [rising, single point]. Moreover, the AC50 under setting [2] was 25.9 µM [rising, single point].
For the compound `COC(=O)C1CCN(C(=O)c2c(-c3ccccc3Cl)noc2C)CC1`, the AC50 under setting [2] was 0.00461 µM [falling, full curve, poor fit].
Regarding `Cc1ccc2oc(=O)c3cnn(CC(=O)N4CCCc5ccccc54)c3c2c1`, the AC50 runs as follows: under setting [1], 0.092 µM [rising, full curve]; under setting [2], 0.103 µM [rising, full curve].
In the case of `Cc1ccc(NC(=O)CS(=O)CC(=O)N(CC(=O)NC2CCCC2)c2cccc(C)c2C)cc1` (stereo not drawn), the cell number change was -7.5%. Also, under setting [2], the AC50 was 29.1 µM [rising, single point].
In the case of `COc1cc(C(=O)N2CCN(c3ccccc3O)CC2)ccc1OCC(=O)N1CCOCC1`, the cell number change is -4.92%. Also, under setting [2], the AC50 is 2.31 µM [rising, partial curve].
Turning to `CCOc1ccc(C2=NNC(c3cccs3)=Nc3ccc(OCC)cc32)cc1`, the cell number change was -76.7%. For the same compound, the concentration at half-maximal activity (AC50) under setting [1] is 29.1 µM [falling, single point]. In addition, the half-maximal activity concentration (AC50) under setting [2] is 14.6 µM [falling, partial curve].
For the compound `CSc1nc(C)cc(Oc2ccc(OCC(N)=O)nn2)n1`, the cell number change was -28.6%. Under setting [1], the AC50 was 1.3 µM [falling, full curve, poor fit]. Also, under setting [2], the half-maximal activity concentration (AC50) was 13 µM [falling, partial curve].
`COc1ccc(C(=O)Nc2cccnc2)cc1`: the cell number change amounted to 42.4%.
On to `C/C(=N\NC(=O)CSc1nc2ccccc2o1)c1ccc(O)cc1`, for which the cell number change is 48.3%. For the same compound, the AC50 under setting [1] is 29.1 µM [rising, single point]. The AC50 under setting [2] is 3.26 µM [rising, partial curve, poor fit].
`O=C(CSc1ccccc1C(=O)O)c1ccc([N+](=O)[O-])cc1`: the cell number change worked out at 29.3%. Moreover, the AC50 under setting [1] is 0.517 µM [rising, full curve]. Further, the AC50 under setting [2] is 0.58 µM [rising, full curve].
Consider `CCC(Oc1cc(Cl)ccc1Cl)C(=O)N1CCCN(C)CC1` (stereo not drawn), for which the cell number change was 18.7%.
In the case of `Cc1cccc(C(=O)O/N=C/c2c(Cl)n(C)c3ccccc23)c1`, the cell number change stood at 47.3%. Moreover, the half-maximal activity concentration (AC50) under setting [1] was 20.6 µM [rising, single point]. In addition, the half-maximal activity concentration (AC50) under setting [2] is 23.1 µM [rising, single point].
Consider `O=C(Nc1oc2ccccc2c(=O)c1-c1ccc(Br)cc1)c1ccco1`, for which the cell number change is -76.6%. Under setting [1], the AC50 is 20.6 µM [falling, single point].
As to `NS(=O)(=O)c1ccc(Nc2c([N+](=O)[O-])cncc2[N+](=O)[O-])cc1`, the cell number change came out at 8.76%. Moreover, under setting [2], the AC50 was 0.651 µM [falling, full curve].
For `CCCCC[n+]1ccn(C2=C([O-])c3ccccc3C(=O)/C2=N\S(=O)(=O)c2ccccc2)c1`, the cell number change is -11.2%. In addition, under setting [2], the half-maximal activity concentration (AC50) is 4.61 µM [falling, full curve].
In the case of `COc1ccccc1NC(=O)Cn1cnc2c(cnn2-c2ccccc2)c1=O`, the cell number change is -35%. For the same compound, the concentration at half-maximal activity (AC50) under setting [1] was 32.6 µM [falling, single point]. The AC50 under setting [2] is 14.6 µM [falling, partial curve].
As to `O=C1CCCc2c1cc(C(=O)Nc1ccc(Br)cn1)c(=O)n2-c1ccccc1`, the cell number change was 78.9%. Moreover, the concentration at half-maximal activity (AC50) under setting [1] is 18.4 µM [rising, single point].
Take `CC1(C)CN(c2ccc(CC#N)cc2)C1=O`: the cell number change is -16.3%. Further, the AC50 under setting [2] is 0.731 µM [falling, full curve].
